From article PMC3973493 come the findings set out here.

Sequences of proteins named here, by UniProt entry; tags and fusion partners are left off.
UniProt Q39026: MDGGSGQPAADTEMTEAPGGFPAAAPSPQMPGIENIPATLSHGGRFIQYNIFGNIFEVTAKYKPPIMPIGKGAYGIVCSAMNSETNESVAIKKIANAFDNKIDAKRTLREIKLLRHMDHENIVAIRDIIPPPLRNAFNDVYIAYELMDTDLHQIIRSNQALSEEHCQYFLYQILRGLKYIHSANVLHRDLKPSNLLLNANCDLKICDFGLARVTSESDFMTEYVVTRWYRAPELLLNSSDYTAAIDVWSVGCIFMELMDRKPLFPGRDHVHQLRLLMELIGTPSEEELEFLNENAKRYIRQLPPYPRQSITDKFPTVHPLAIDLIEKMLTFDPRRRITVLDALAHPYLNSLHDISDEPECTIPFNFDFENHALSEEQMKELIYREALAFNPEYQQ

Assay [1] deals with T1, AZI1 proline-rich domain (PRD, residues 25-72), intein-chitin-binding-protein fusion (Arabidopsis thaliana) (UniProt Q9SU35).
T1 sequence: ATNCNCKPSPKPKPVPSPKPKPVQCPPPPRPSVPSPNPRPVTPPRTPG
The assay is described as follows: pull-down; AZI1 peptides immobilized on chitin agarose by the intein-chitin-binding-protein tag, incubated with lysates of E. coli expressing GST-MPK3 or GST-MPK6; captured proteins seen by Coomassie staining and anti-GST immunoblot; only the target purified.

Assay [2] addresses T2, AZI1 PRD-8CM (residues 25-end), intein-chitin-binding-protein fusion (Arabidopsis thaliana) (UniProt Q9SU35).
T2 sequence: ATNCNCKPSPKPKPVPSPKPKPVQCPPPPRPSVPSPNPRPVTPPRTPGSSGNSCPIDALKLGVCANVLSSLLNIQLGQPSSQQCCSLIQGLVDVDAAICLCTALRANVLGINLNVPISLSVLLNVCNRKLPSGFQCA
Described as above.

For assay [3], the target named is T3, MKK4-cYFP (Arabidopsis) (UniProt O80397).
T3 sequence: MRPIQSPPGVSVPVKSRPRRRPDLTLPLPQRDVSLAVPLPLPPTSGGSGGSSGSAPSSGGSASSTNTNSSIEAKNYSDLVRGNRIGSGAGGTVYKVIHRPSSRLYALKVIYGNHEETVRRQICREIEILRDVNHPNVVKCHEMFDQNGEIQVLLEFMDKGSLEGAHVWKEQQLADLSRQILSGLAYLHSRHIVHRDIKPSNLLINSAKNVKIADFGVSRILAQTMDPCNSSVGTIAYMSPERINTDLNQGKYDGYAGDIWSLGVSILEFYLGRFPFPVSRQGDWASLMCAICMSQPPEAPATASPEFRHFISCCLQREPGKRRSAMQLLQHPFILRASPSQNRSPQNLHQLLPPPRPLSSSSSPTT
The assay is described as follows: split reporter; BiFC in Arabidopsis mesophyll protoplasts, transient expression; repeated several times.

These are yes or no findings as the source states them, for the method shown. Binding seen in cells or lysates may run through a third protein. Some results given as binding are weak or reduced against the parent protein; the word gives no strength. Sequences can lack the tags named with a protein.

On to “GST-MPK6 (from UniProt Q39026 1-395) (enzyme)”, for which the binding result in assay [1] and in assay [2] was “binds” each time.

B1: GST-MPK3 (enzyme, UniProt Q39023 1-370)
chain: MNTGGGQYTDFPAVETHGGQFISYDIFGSLFEITSKYRPPIIPIGRGAYGIVCSVLDTETNELVAMKKIANAFDNHMDAKRTLREIKLLRHLDHENIIAIRDVVPPPLRRQFSDVYISTELMDTDLHQIIRSNQSLSEEHCQYFLYQLLRGLKYIHSANIIHRDLKPSNLLLNANCDLKICDFGLARPTSENDFMTEYVVTRWYRAPELLLNSSDYTAAIDVWSVGCIFMELMNRKPLFPGKDHVHQMRLLTELLGTPTESDLGFTHNEDAKRYIRQLPNFPRQPLAKLFSHVNPMAIDLVDRMLTFDPNRRITVEQALNHQYLAKLHDPNDEPICQKPFSFEFEQQPLDEEQIKEMIYQEAIALNPTYG
Turning to B1, the binding entry in assay [1] and in assay [2] was “binds” in each case.

B2: MPK3-nYFP (enzyme, UniProt Q39023 1-370)
chain: B1 chain
Turning to B2, in assay [3], the binding entry is “binds”.
